Experimental data as given in the supplement of paper PMC10849652.
The list shows a part of the results.

By UniProt entry, the sequences of proteins in these tests, tags left out. Where a name states a change or a piece, a line headed by the entry shows the natural chain unless it says otherwise.
UniProt Q9Y6B7: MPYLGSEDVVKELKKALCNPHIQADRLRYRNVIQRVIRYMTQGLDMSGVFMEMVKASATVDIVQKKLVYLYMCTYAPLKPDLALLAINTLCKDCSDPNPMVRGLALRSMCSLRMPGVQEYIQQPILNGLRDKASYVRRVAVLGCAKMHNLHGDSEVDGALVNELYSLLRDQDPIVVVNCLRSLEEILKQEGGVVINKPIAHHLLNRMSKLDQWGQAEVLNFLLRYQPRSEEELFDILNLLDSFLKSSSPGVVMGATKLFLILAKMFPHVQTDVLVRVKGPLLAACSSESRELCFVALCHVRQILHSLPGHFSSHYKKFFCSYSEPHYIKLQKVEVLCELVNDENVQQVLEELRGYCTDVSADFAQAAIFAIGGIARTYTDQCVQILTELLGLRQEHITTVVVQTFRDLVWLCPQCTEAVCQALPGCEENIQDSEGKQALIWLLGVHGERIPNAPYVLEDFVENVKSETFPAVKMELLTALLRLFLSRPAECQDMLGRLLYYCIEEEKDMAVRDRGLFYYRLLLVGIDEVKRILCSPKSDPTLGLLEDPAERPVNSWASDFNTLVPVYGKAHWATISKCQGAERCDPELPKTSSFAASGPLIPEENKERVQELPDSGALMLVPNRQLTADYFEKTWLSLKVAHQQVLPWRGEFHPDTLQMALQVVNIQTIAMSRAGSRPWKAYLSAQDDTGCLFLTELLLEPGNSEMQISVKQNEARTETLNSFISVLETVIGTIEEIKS
UniProt P20073: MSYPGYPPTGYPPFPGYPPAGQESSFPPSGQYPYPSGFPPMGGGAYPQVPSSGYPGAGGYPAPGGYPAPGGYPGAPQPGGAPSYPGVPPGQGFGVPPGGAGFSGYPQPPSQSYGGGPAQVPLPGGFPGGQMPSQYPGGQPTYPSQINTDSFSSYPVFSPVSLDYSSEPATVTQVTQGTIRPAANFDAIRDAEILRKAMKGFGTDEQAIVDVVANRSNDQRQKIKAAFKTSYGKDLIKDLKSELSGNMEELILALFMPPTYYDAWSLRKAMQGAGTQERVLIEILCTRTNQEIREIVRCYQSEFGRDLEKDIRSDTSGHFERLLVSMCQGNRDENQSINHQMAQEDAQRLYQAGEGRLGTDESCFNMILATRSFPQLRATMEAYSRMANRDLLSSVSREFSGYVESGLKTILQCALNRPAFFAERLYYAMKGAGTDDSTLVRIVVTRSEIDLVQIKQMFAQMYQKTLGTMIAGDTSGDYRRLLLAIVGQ
UniProt P04083: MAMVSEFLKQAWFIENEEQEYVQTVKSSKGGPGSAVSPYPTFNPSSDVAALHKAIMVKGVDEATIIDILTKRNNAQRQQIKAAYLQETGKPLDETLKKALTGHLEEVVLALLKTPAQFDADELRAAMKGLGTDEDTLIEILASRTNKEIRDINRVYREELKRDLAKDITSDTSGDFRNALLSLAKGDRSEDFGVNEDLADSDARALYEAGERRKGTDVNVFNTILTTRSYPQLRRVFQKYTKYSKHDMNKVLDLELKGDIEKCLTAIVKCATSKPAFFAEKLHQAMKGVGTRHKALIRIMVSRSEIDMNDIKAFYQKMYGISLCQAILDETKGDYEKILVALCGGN
UniProt O95782: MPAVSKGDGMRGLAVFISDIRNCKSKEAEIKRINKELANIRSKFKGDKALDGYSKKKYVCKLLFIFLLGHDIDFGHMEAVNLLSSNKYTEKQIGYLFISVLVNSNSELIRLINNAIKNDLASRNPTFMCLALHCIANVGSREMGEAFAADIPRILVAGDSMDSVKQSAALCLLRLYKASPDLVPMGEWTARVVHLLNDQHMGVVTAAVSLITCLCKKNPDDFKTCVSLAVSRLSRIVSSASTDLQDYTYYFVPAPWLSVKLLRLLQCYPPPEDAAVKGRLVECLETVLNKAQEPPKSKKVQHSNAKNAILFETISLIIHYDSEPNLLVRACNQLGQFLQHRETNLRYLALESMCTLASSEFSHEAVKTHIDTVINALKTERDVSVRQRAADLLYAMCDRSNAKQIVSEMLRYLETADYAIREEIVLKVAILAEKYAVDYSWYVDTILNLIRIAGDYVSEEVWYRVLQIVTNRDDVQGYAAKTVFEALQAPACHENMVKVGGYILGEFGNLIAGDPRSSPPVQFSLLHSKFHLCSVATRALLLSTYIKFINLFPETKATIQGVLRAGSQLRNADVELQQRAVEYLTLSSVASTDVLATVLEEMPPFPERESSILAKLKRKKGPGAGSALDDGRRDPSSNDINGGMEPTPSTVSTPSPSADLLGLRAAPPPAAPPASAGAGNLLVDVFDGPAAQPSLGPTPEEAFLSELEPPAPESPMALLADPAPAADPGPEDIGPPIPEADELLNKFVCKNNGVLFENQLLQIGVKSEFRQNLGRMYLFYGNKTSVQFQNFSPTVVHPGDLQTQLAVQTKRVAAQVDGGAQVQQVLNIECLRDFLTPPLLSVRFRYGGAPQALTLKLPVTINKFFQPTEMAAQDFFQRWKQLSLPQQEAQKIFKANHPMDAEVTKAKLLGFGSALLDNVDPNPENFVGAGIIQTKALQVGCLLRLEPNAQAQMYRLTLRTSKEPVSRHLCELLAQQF
UniProt P09972: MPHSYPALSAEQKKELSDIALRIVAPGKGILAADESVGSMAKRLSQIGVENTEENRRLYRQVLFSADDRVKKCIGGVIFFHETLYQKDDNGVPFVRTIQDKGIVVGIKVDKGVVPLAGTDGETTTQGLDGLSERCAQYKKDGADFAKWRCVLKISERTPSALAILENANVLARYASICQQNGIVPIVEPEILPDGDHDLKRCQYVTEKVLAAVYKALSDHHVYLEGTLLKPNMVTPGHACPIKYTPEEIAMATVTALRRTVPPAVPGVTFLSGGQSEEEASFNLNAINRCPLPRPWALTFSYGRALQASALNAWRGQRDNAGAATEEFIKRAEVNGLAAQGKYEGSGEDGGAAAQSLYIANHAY
UniProt Q96CW1: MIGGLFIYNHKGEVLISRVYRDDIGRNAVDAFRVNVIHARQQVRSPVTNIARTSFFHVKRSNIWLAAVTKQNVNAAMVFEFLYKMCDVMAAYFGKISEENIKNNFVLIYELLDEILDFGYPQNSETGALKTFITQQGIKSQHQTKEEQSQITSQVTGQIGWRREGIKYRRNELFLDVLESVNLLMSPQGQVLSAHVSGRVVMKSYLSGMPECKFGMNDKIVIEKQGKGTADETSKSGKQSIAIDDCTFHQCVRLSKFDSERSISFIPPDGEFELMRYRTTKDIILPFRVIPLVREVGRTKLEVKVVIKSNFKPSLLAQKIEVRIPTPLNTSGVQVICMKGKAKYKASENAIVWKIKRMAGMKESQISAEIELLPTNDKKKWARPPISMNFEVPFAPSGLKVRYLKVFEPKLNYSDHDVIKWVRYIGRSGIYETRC
UniProt P51649: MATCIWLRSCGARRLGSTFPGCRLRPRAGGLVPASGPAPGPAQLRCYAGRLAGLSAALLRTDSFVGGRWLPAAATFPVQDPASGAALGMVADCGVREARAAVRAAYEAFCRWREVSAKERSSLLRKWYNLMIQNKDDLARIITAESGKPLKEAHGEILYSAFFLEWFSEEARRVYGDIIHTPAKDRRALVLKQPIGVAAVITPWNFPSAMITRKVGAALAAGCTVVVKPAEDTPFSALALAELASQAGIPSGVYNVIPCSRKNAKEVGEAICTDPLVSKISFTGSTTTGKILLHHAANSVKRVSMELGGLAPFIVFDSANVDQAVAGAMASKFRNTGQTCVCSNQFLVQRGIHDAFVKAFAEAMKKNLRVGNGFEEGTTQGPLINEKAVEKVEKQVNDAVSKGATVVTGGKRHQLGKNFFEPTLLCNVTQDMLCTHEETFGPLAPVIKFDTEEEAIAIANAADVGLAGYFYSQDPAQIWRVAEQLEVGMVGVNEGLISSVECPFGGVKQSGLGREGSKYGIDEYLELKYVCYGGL
UniProt P08133: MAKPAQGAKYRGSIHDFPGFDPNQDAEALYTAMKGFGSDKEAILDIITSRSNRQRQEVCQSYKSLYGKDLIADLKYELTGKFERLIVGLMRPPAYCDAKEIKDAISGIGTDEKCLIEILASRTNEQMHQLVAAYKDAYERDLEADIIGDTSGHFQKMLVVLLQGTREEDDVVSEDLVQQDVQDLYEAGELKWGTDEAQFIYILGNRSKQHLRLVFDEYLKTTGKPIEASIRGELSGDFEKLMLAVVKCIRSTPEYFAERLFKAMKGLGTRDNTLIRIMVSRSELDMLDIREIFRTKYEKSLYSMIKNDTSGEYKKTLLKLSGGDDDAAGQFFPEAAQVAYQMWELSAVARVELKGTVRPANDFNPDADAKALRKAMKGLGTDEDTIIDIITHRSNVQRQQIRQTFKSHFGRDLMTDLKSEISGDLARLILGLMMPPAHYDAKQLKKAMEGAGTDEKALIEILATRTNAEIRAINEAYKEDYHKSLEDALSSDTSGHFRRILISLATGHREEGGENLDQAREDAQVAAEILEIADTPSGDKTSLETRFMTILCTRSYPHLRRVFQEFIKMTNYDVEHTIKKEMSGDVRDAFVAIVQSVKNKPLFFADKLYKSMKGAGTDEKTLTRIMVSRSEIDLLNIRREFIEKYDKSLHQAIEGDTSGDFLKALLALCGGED
UniProt Q9UJX3, whole entry, looked up: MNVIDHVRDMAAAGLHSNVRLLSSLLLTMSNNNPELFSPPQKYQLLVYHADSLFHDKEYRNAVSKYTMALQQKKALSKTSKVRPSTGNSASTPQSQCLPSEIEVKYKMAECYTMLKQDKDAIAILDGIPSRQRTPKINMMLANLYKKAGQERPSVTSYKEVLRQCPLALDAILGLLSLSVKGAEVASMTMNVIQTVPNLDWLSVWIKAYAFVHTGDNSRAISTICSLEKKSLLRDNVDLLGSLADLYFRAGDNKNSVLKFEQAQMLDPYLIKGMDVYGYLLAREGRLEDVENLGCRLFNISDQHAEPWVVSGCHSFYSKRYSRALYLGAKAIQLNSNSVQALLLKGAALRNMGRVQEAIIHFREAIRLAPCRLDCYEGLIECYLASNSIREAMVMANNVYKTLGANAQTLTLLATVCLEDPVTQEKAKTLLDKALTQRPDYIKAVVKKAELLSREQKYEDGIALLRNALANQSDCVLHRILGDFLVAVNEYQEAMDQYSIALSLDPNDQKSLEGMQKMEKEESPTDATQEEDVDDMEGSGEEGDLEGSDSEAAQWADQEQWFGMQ
UniProt P07355, whole entry, looked up: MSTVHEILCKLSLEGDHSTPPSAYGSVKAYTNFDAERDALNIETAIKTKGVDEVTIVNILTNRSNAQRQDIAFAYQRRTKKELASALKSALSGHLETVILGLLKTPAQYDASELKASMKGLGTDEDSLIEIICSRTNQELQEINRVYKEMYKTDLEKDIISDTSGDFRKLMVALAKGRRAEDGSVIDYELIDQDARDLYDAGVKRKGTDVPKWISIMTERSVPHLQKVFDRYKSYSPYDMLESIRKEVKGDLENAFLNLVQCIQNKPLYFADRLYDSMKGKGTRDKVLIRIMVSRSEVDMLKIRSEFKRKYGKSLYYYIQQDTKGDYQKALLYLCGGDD
UniProt Q6ZTN6: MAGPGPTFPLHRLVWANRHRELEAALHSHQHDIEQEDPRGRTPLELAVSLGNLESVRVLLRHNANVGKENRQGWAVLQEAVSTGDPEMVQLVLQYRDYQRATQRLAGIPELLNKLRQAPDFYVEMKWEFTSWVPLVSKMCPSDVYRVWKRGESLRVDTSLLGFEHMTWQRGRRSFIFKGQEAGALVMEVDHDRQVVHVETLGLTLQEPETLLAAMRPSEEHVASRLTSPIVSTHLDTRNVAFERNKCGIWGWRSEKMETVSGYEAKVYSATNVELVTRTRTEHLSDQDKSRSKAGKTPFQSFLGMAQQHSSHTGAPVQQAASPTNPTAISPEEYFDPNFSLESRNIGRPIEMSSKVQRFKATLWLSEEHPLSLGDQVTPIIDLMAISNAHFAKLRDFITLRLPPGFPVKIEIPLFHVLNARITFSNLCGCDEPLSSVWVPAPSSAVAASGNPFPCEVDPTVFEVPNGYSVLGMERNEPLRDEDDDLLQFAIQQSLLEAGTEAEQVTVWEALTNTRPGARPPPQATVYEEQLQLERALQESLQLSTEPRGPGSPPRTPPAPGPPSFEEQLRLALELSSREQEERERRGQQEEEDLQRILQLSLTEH
UniProt Q8IV38: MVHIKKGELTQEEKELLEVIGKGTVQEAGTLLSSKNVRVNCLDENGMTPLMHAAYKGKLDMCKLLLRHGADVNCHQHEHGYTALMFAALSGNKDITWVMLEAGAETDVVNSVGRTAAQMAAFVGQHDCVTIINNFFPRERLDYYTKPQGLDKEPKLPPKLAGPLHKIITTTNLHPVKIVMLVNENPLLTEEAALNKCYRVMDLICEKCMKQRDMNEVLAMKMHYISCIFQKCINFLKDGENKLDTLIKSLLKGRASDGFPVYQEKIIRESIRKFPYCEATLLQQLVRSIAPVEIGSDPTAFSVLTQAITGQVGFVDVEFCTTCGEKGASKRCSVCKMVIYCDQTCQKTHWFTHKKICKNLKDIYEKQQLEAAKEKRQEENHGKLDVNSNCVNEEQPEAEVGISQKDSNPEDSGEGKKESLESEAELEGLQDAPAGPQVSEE

Experiments:
Assay in all cases: log2 fold change, soluble protein after heating vs DMSO (PISA); higher = thermal stabilisation; K562 lysate, 10 uM; active = over 0.2 and 3.5 SD of the protein, either way, in both replicates (recomputed)
ibrutinib = compound: C=CC(=O)N1CCC[C@@H](n2nc(-c3ccc(Oc4ccccc4)cc3)c3c(N)ncnc32)C1 [ibrutinib]
How it was run: (§1)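 The values are log-two fold changes in thermal stability compared with solvent controls and come from duplicates. They were obtained by TMTpro 16plex LC-MS/MS, with channel sums equalised, on the supernatant after 21,000xg for 90 min. That supernatant came from crude K562 extract at 1 mg/mL protein treated with 10 μM compound for 30 min, heated for 3 min across 48°C-58°C, pooled and brought to 0.5% NP-40 at 4°C.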

[1] = compound: CC(=O)c1cnc2ccc(-c3cc(Cl)c(O)c(Cl)c3)nc2c1N[C@H]1CC[C@H](CN(C)C)CC1
How it was run: as §1

ralimetinib = compound: CC(C)(C)Cn1c(N)nc2ccc(-c3[nH]c(C(C)(C)C)nc3-c3ccc(F)cc3)nc21 [ralimetinib]
How it was run: as §1

[2] = compound: CC(C)(O)CC(=O)NCCn1ccc2ncnc(Nc3ccc(Oc4cccc(C(F)(F)F)c4)c(Cl)c3)c21
How it was run: as §1

[3] = compound: CC(C)C1=C2N=C(C=C(N2N=C1)NCC3=CC=CC=C3)NCCCCCCN
How it was run: as §1

[4] = compound: CC1=C(C(CC(=O)N1)C2=CC=C(C=C2)C(F)(F)F)C(=O)NC3=C(C=C4C(=C3)C=NN4)F
How it was run: as §1

[5] = compound: CC1=C(C2=C(C=C1)C(=O)C3=CC=CC=C3N2CCCN)C
How it was run: as §1

[6] = compound: CC1=C(C=C(C=C1)NC(=O)C2=CC(=CC=C2)C(C)(C)C#N)NC3=CC4=C(C=C3)N=CN(C4=O)C
How it was run: as §1

[7] = compound: CC1=C(C=C(C=C1)NC(=O)C2=CC(=CC=C2)N(C)C)NC(=O)C3=CC=C(C=C3)O
How it was run: as §1

[8] = compound: CC1=CC=C(C=C1)SC2=C3C=C(SC3=CN=C2)C(=O)N
How it was run: as §1

vemurafenib = compound: CCCS(=O)(=O)Nc1ccc(F)c(C(=O)c2c[nH]c3ncc(-c4ccc(Cl)cc4)cc23)c1F [vemurafenib]
How it was run: as §1

[9] = compound: CCCS(=O)(=O)Nc1ccc(F)c(C(=O)c2c[nH]c3ncc(Cl)cc23)c1F
How it was run: as §1

barasertib = compound: CCN(CCCOc1ccc2c(Nc3cc(CC(=O)Nc4cccc(F)c4)[nH]n3)ncnc2c1)CCOP(=O)(O)O [barasertib]
How it was run: as §1

[10] = compound: CC[C@@H]1C(=O)N(C)c2cnc(Nc3ccc(C(=O)NC4CCN(C)CC4)cc3OC)nc2N1C1CCCC1
How it was run: as §1

volasertib = compound: CC[C@@H]1C(=O)N(C)c2cnc(Nc3ccc(C(=O)N[C@H]4CC[C@H](N5CCN(CC6CC6)CC5)CC4)cc3OC)nc2N1C(C)C [volasertib]
How it was run: as §1

[11] = compound: CCn1c(C(=O)N(C2CC2)C2CC2)cc2c3c(ncn3C)c(Nc3cc(C)n(C)n3)nc21
How it was run: as §1

[12] = compound: CCn1cc(-c2ccnc3[nH]c(-c4cccc(CN(C)C)c4)cc23)c(-c2ccc(NC(=O)N(C)C)cc2)n1
How it was run: as §1

[13] = compound: CN1CCC(CNc2ccc3ncc(-c4cccc(OC(F)(F)F)c4)n3n2)CC1
How it was run: as §1

saracatinib = compound: CN1CCN(CCOc2cc(OC3CCOCC3)c3c(Nc4c(Cl)ccc5c4OCO5)ncnc3c2)CC1 [saracatinib]
How it was run: as §1

sotrastaurin = compound: CN1CCN(c2nc(C3=C(c4c[nH]c5ccccc45)C(=O)NC3=O)c3ccccc3n2)CC1 [sotrastaurin]
How it was run: as §1

Measured: log2 fold change

AP4B1 (UniProt Q9Y6B7)
inactive: ibrutinib -0.028 | [1] -0.048 | ralimetinib -0.044 | [2] 0 | [3] 0.034 | [4] 0.003 | [5] -0.027 | [6] -0.02 | [7] -0.041 | [8] -0.041 | vemurafenib 0.026 | [9] 0.087 | barasertib 0.028 | [10] -0.01 | volasertib -0.009 | [11] 0.011 | [12] -0.035 | [13] 0.02 | saracatinib 0.042 | sotrastaurin -0.027

ANXA7 (UniProt P20073)
inactive: ibrutinib 0.002 | [1] -0.009 | ralimetinib 0 | [2] 0.021 | [3] 0.002 | [4] -0.024 | [5] 0.012 | [6] -0.031 | [7] -0.031 | [8] 0.017 | vemurafenib 0.002 | [9] 0.024 | barasertib 0.016 | [10] -0.023 | volasertib -0.013 | [11] -0.002 | [12] -0.054 | [13] 0.009 | saracatinib -0.016 | sotrastaurin 0

ANXA1 (UniProt P04083)
inactive: ibrutinib -0.001 | [1] 0.007 | ralimetinib -0.003 | [2] 0.007 | [3] 0.005 | [4] -0.01 | [5] 0.03 | [6] -0.024 | [7] 0.025 | [8] -0.003 | vemurafenib -0.007 | [9] -0.027 | barasertib -0.038 | [10] -0.022 | volasertib -0.011 | [11] 0.008 | [12] 0.028 | [13] 0.049 | saracatinib -0.019 | sotrastaurin 0.017

ALYREF (UniProt Q86V81)
inactive: ibrutinib 0.008 | [1] -0.001 | ralimetinib -0.009 | [2] 0.015 | [3] -0.06 | [4] -0.054 | [5] 0.026 | [6] -0.056 | [7] 0.025 | [8] 0.029 | vemurafenib 0.005 | [9] 0 | barasertib -0.039 | [10] 0.003 | volasertib 0.017 | [11] -0.012 | [12] 0.19 | [13] -0.06 | saracatinib 0.026 | sotrastaurin 0.012

AP2A1 (UniProt O95782)
inactive: ibrutinib 0 | [1] 0.022 | ralimetinib -0.005 | [2] 0 | [3] -0.009 | [4] -0.007 | [5] 0 | [6] 0.039 | [7] -0.015 | [8] -0.003 | vemurafenib -0.009 | [9] 0.015 | barasertib 0.011 | [10] 0.004 | volasertib -0.01 | [11] 0.005 | [12] -0.053 | [13] 0.023 | saracatinib -0.031 | sotrastaurin -0.016

ALDOC (UniProt P09972)
inactive: ibrutinib 0.01 | [1] -0.021 | ralimetinib 0.003 | [2] 0.051 | [3] -0.015 | [4] -0.01 | [5] 0.034 | [6] 0.006 | [7] -0.003 | [8] -0.027 | vemurafenib -0.028 | [9] 0.065 | barasertib -0.071 | [10] 0.035 | volasertib 0.024 | [11] -0.013 | [12] 0.013 | [13] 0.007 | saracatinib -0.011 | sotrastaurin 0.001

3 consecutive records out of the list so far:
AP4B1 (UniProt Q9Y6B7)
inactive: ibrutinib -0.028 | [1] -0.048 | ralimetinib -0.044 | [2] 0 | [3] 0.034 | [4] 0.003 | [5] -0.027 | [6] -0.02 | [7] -0.041 | [8] -0.041 | vemurafenib 0.026 | [9] 0.087 | barasertib 0.028 | [10] -0.01 | volasertib -0.009 | [11] 0.011 | [12] -0.035 | [13] 0.02 | saracatinib 0.042 | sotrastaurin -0.027

ANXA7 (UniProt P20073)
inactive: ibrutinib 0.002 | [1] -0.009 | ralimetinib 0 | [2] 0.021 | [3] 0.002 | [4] -0.024 | [5] 0.012 | [6] -0.031 | [7] -0.031 | [8] 0.017 | vemurafenib 0.002 | [9] 0.024 | barasertib 0.016 | [10] -0.023 | volasertib -0.013 | [11] -0.002 | [12] -0.054 | [13] 0.009 | saracatinib -0.016 | sotrastaurin 0

ANXA1 (UniProt P04083)
inactive: ibrutinib -0.001 | [1] 0.007 | ralimetinib -0.003 | [2] 0.007 | [3] 0.005 | [4] -0.01 | [5] 0.03 | [6] -0.024 | [7] 0.025 | [8] -0.003 | vemurafenib -0.007 | [9] -0.027 | barasertib -0.038 | [10] -0.022 | volasertib -0.011 | [11] 0.008 | [12] 0.028 | [13] 0.049 | saracatinib -0.019 | sotrastaurin 0.017

Further entries:

ANK3 (UniProt Q12955)
inactive: ibrutinib 0.034 | [1] -0.017 | ralimetinib -0.058 | [2] -0.01 | [3] 0.004 | [4] -0.015 | [5] -0.049 | [6] 0.02 | [7] 0.089 | [8] -0.031 | vemurafenib -0.001 | [9] 0.042 | barasertib -0.035 | [10] -0.032 | volasertib -0.078 | [11] 0.017 | [12] -0.02 | [13] 0.013 | saracatinib 0.018 | sotrastaurin 0.011

AP2M1 (UniProt Q96CW1)
inactive: ibrutinib -0.014 | [1] 0.022 | ralimetinib 0.007 | [2] -0.026 | [3] -0.019 | [4] -0.016 | [5] 0.002 | [6] 0.045 | [7] -0.004 | [8] 0.016 | vemurafenib 0.016 | [9] 0.001 | barasertib 0.019 | [10] -0.009 | volasertib -0.005 | [11] -0.02 | [12] -0.088 | [13] 0.021 | saracatinib -0.028 | sotrastaurin -0.002

ALDH5A1 isoform 2 (UniProt P51649)
inactive: ibrutinib 0.041 | [1] 0.018 | ralimetinib -0.015 | [2] 0.001 | [3] -0.019 | [4] -0.01 | [5] 0.001 | [6] 0.021 | [7] -0.022 | [8] 0.011 | vemurafenib -0.016 | [9] 0.011 | barasertib -0.009 | [10] -0.024 | volasertib -0.001 | [11] 0.031 | [12] 0.004 | [13] 0.008 | saracatinib 0 | sotrastaurin -0.023

ANXA6 (UniProt P08133)
inactive: ibrutinib 0.005 | [1] -0.001 | ralimetinib -0.015 | [2] -0.033 | [3] 0.004 | [4] -0.015 | [5] 0.001 | [6] -0.013 | [7] 0.025 | [8] -0.008 | vemurafenib -0.003 | [9] 0.016 | barasertib 0.022 | [10] -0.128 | volasertib -0.024 | [11] -0.017 | [12] -0.14 | [13] 0.114 | saracatinib -0.009 | sotrastaurin 0.013

ANAPC7 (UniProt Q9UJX3)
inactive: ibrutinib -0.007 | [1] 0.002 | ralimetinib 0.015 | [2] -0.009 | [3] 0.001 | [4] 0.01 | [5] 0.002 | [6] 0.022 | [7] 0.023 | [8] 0.01 | vemurafenib -0.026 | [9] 0.033 | barasertib -0.02 | [10] -0.035 | volasertib -0.029 | [11] 0.016 | [12] -0.022 | [13] -0.03 | saracatinib 0.025 | sotrastaurin -0.001

ANXA2 isoform 2 (UniProt P07355)
inactive: ibrutinib -0.013 | [1] 0.012 | ralimetinib -0.009 | [2] 0.033 | [3] -0.01 | [4] 0.006 | [5] 0.048 | [6] -0.024 | [7] -0.01 | [8] 0.013 | vemurafenib -0.03 | [9] -0.004 | barasertib -0.021 | [10] 0 | volasertib 0.017 | [11] 0.033 | [12] -0.003 | [13] -0.02 | saracatinib 0.013 | sotrastaurin -0.012

ANKRD17 (UniProt O75179)
inactive: ibrutinib 0.01 | [1] -0.003 | ralimetinib 0.02 | [2] -0.012 | [3] -0.025 | [4] 0.017 | [5] 0 | [6] -0.152 | [7] 0.018 | [8] 0.007 | vemurafenib 0.021 | [9] 0.025 | barasertib 0.049 | [10] 0.002 | volasertib -0.05 | [11] 0.023 | [12] -0.084 | [13] 0.063 | saracatinib 0.001 | sotrastaurin 0.004

AKT2 (UniProt P31751)
inactive: ibrutinib -0.016 | [1] 0.006 | ralimetinib 0.026 | [2] 0.006 | [3] -0.006 | [4] 0.011 | [5] 0.007 | [6] 0.005 | [7] -0.004 | [8] -0.044 | vemurafenib 0.008 | [9] 0 | barasertib -0.026 | [10] -0.024 | volasertib -0.031 | [11] 0.025 | [12] 0.007 | [13] 0.004 | saracatinib -0.011 | sotrastaurin 0.017

ANKRD13D isoform 3 (UniProt Q6ZTN6)
inactive: ibrutinib 0.054 | [1] 0 | ralimetinib -0.078 | [2] -0.037 | [3] -0.105 | [4] 0.094 | [5] 0.047 | [6] 0.033 | [7] 0.01 | [8] 0.061 | vemurafenib -0.088 | [9] 0.048 | barasertib 0.143 | [10] 0.218 | volasertib -0.069 | [11] 0.173 | [12] 0.056 | [13] 0.062 | saracatinib -0.045 | sotrastaurin -0.01

ANKMY2 (UniProt Q8IV38)
inactive: ibrutinib 0.01 | [1] 0.005 | ralimetinib 0.01 | [2] -0.012 | [3] 0.002 | [4] -0.007 | [5] -0.003 | [6] 0.032 | [7] -0.002 | [8] 0.011 | vemurafenib -0.015 | [9] 0.017 | barasertib 0.019 | [10] 0 | volasertib -0.047 | [11] 0.021 | [12] 0.141 | [13] -0.091 | saracatinib 0.003 | sotrastaurin 0.005
